Results from PMC8632983.
Results are given in words; binding and its absence hold for the method and conditions named. In cells and extracts the contact can be indirect. Some results given as binding are weak or reduced against the parent protein; the word gives no strength.

T1: SMAD family member 6 (SMAD6) (mouse (endogenous in 3T3-L1 adipocytes and AML12 cells)) (UniProt O35182)
T1 sequence: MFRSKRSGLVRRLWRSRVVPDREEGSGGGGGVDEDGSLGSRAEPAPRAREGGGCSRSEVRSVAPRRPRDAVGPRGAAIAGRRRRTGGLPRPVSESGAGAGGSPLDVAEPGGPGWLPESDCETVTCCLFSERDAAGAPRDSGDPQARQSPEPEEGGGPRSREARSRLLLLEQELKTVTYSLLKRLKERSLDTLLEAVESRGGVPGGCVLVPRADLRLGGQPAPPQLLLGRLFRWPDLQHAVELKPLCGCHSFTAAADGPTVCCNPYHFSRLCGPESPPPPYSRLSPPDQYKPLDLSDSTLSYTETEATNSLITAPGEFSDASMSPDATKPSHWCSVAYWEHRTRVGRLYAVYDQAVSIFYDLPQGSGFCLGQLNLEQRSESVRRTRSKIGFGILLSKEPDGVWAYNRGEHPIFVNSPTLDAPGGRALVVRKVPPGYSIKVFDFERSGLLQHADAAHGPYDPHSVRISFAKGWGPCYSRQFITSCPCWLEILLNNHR

T2: SKI family transcriptional corepressor 1 (SKOR1) (mouse (endogenous in 3T3-L1 adipocytes and AML12 cells)) (UniProt Q8BX46)
T2 sequence: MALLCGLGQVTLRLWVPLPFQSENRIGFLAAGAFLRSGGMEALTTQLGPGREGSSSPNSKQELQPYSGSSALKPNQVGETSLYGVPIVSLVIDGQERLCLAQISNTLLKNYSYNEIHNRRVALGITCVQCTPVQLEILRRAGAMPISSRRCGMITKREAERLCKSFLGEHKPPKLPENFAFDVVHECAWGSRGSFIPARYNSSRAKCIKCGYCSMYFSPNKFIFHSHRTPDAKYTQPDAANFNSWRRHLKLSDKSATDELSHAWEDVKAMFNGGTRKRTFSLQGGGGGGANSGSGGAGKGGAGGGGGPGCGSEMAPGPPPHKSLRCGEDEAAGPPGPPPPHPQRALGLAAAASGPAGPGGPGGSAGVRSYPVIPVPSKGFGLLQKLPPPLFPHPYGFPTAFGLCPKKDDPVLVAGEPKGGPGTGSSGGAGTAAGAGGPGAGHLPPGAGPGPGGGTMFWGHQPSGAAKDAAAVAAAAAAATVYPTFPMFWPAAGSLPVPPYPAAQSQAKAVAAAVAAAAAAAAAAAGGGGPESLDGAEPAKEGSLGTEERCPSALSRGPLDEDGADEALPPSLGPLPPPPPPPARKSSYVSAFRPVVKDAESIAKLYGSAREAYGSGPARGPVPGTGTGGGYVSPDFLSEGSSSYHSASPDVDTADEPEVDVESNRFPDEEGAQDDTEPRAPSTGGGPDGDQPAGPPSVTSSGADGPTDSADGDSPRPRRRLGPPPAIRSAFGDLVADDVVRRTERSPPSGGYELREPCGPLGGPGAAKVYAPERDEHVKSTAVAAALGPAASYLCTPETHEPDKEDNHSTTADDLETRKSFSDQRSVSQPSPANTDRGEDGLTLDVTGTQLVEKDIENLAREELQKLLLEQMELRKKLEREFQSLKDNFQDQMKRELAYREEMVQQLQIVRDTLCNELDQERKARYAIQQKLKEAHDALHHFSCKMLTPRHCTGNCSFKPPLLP


Tests used:
[1] = target: T1, SMAD family member 6 (SMAD6) (mouse (endogenous in 3T3-L1 adipocytes and AML12 cells)); assay: co-IP; reciprocal IP with anti-SKOR1 or anti-SMAD6 antibody from RIPA lysates of 3T3-L1 adipocytes or AML12 cells; Protein A/G agarose beads, overnight at 4 °C; beads washed thrice with ice-cold PBS; immunoblot
[2] = target: T2, SKI family transcriptional corepressor 1 (SKOR1) (mouse (endogenous in 3T3-L1 adipocytes and AML12 cells)); assay: as above

binding [1] | binding [2] | Binder
binds | – | SKI family transcriptional corepressor 1 (SKOR1) (protein, UniProt Q8BX46 1-964) MALLCGLGQVTLRLWVPLPFQSENRIGFLAAGAFLRSGGMEALTTQLGPGREGSSSPNSKQELQPYSGSSALKPNQVGETSLYGVPIVSLVIDGQERLCLAQISNTLLKNYSYNEIHNRRVALGITCVQCTPVQLEILRRAGAMPISSRRCGMITKREAERLCKSFLGEHKPPKLPENFAFDVVHECAWGSRGSFIPARYNSSRAKCIKCGYCSMYFSPNKFIFHSHRTPDAKYTQPDAANFNSWRRHLKLSDKSATDELSHAWEDVKAMFNGGTRKRTFSLQGGGGGGANSGSGGAGKGGAGGGGGPGCGSEMAPGPPPHKSLRCGEDEAAGPPGPPPPHPQRALGLAAAASGPAGPGGPGGSAGVRSYPVIPVPSKGFGLLQKLPPPLFPHPYGFPTAFGLCPKKDDPVLVAGEPKGGPGTGSSGGAGTAAGAGGPGAGHLPPGAGPGPGGGTMFWGHQPSGAAKDAAAVAAAAAAATVYPTFPMFWPAAGSLPVPPYPAAQSQAKAVAAAVAAAAAAAAAAAGGGGPESLDGAEPAKEGSLGTEERCPSALSRGPLDEDGADEALPPSLGPLPPPPPPPARKSSYVSAFRPVVKDAESIAKLYGSAREAYGSGPARGPVPGTGTGGGYVSPDFLSEGSSSYHSASPDVDTADEPEVDVESNRFPDEEGAQDDTEPRAPSTGGGPDGDQPAGPPSVTSSGADGPTDSADGDSPRPRRRLGPPPAIRSAFGDLVADDVVRRTERSPPSGGYELREPCGPLGGPGAAKVYAPERDEHVKSTAVAAALGPAASYLCTPETHEPDKEDNHSTTADDLETRKSFSDQRSVSQPSPANTDRGEDGLTLDVTGTQLVEKDIENLAREELQKLLLEQMELRKKLEREFQSLKDNFQDQMKRELAYREEMVQQLQIVRDTLCNELDQERKARYAIQQKLKEAHDALHHFSCKMLTPRHCTGNCSFKPPLLP
– | binds | SMAD family member 6 (SMAD6) (protein, UniProt O35182 1-495) MFRSKRSGLVRRLWRSRVVPDREEGSGGGGGVDEDGSLGSRAEPAPRAREGGGCSRSEVRSVAPRRPRDAVGPRGAAIAGRRRRTGGLPRPVSESGAGAGGSPLDVAEPGGPGWLPESDCETVTCCLFSERDAAGAPRDSGDPQARQSPEPEEGGGPRSREARSRLLLLEQELKTVTYSLLKRLKERSLDTLLEAVESRGGVPGGCVLVPRADLRLGGQPAPPQLLLGRLFRWPDLQHAVELKPLCGCHSFTAAADGPTVCCNPYHFSRLCGPESPPPPYSRLSPPDQYKPLDLSDSTLSYTETEATNSLITAPGEFSDASMSPDATKPSHWCSVAYWEHRTRVGRLYAVYDQAVSIFYDLPQGSGFCLGQLNLEQRSESVRRTRSKIGFGILLSKEPDGVWAYNRGEHPIFVNSPTLDAPGGRALVVRKVPPGYSIKVFDFERSGLLQHADAAHGPYDPHSVRISFAKGWGPCYSRQFITSCPCWLEILLNNHR
